PubChem BioAssay AID1259254, NCATS, 2017

Test: 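Finding genes that stop cells copying their DNA twice in one cycle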 (primary screen)
Cells: human HCT116 colorectal cancer cells
Knock-down reagent: single siRNA against human genes
Time to read-out: 3 days
Detection: 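Nuclei stained with Hoechst and imaged; cell-cycle phase assigned by DNA content; G2 share scaled per plate, non-targeting siRNA 0%, GMNN siRNA 100%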
Reading the numbers: G2 robust z-score and G2 cells, % of GMNN control: higher = more G2 cells, more excess DNA replication
Hit rule: 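An siRNA counts as active if its G2 robust z-score lies at least 5 MADs above the screen median; here such calls match roughly 38% of GMNN control or more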
This is an unselected part of about 59,000 reagents tested. Of all reagents, about 1,550 (2.6%) were called active. 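G2 share is only a proxy for re-replication; each gene was hit by three separate siRNAs, and active genes were retested.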 The numbers tell different reagents against one gene apart. Not all columns of the deposit are shown. Reagent sequences are not shown. Not stated in the record: the amount of reagent.

DUSP23 (dual specificity phosphatase 23) #1 showed G2 robust z-score -0.762; G2 cells, % of GMNN control -2.39; inactive.
Silencing of DUSP23 (dual specificity phosphatase 23) #2 came out at: G2 robust z-score -1.33; G2 cells, % of GMNN control -6.39; inactive.
Depletion of DUSP23 (dual specificity phosphatase 23) #3 came out at: G2 robust z-score 2.1; G2 cells, % of GMNN control 17.8; inactive.
DIPK1A (divergent protein kinase domain 1A) #1 showed G2 robust z-score -0.294; G2 cells, % of GMNN control 0.9; inactive.
Depletion of DIPK1A (divergent protein kinase domain 1A) #2 gave: G2 robust z-score 0.774; G2 cells, % of GMNN control 8.41; inactive.
DIPK1A (divergent protein kinase domain 1A) #3 gave G2 robust z-score -0.275; G2 cells, % of GMNN control 1.03; inactive.

Sorted by “G2 robust z-score” (low to high): 3 of the entries above.
DIPK1A (divergent protein kinase domain 1A) #1: G2 robust z-score = -0.294; G2 cells, % of GMNN control = 0.9; Outcome = inactive
DIPK1A (divergent protein kinase domain 1A) #2: G2 robust z-score = 0.774; G2 cells, % of GMNN control = 8.41; Outcome = inactive
DUSP23 (dual specificity phosphatase 23) #3: G2 robust z-score = 2.1; G2 cells, % of GMNN control = 17.8; Outcome = inactive

More reagents:
Against ASPSCR1 (ASPSCR1 tether for SLC2A4, UBX domain containing) #1, the entry reads G2 robust z-score 0.168; G2 cells, % of GMNN control 4.15; inactive.
ASPSCR1 (ASPSCR1 tether for SLC2A4, UBX domain containing) #2 scored G2 robust z-score 1.47; G2 cells, % of GMNN control 13.3; inactive.
After knock-down of ASPSCR1 (ASPSCR1 tether for SLC2A4, UBX domain containing) #3, the record shows G2 robust z-score -1.02; G2 cells, % of GMNN control -4.23; inactive.
SERPINE2 (serpin family E member 2) #1 gave G2 robust z-score -1.22; G2 cells, % of GMNN control -5.59; inactive.
For SERPINE2 (serpin family E member 2) #2 the deposit lists G2 robust z-score 0.548; G2 cells, % of GMNN control 6.82; inactive.
For SERPINE2 (serpin family E member 2) #3, the values are G2 robust z-score -0.684; G2 cells, % of GMNN control -1.84; inactive.
After knock-down of COL6A4P1 (collagen type VI alpha 4 pseudogene 1) #1 the results were G2 robust z-score -0.846; G2 cells, % of GMNN control -2.98; inactive.
With knock-down of COL6A4P1 (collagen type VI alpha 4 pseudogene 1) #2 the results were G2 robust z-score -0.065; G2 cells, % of GMNN control 2.51; inactive.
With knock-down of COL6A4P1 (collagen type VI alpha 4 pseudogene 1) #3, the record shows G2 robust z-score -0.984; G2 cells, % of GMNN control -3.95; inactive.
Against COL6A4P1 (collagen type VI alpha 4 pseudogene 1) #4, the values are G2 robust z-score 0.196; G2 cells, % of GMNN control 4.34; inactive.
Against COL6A4P1 (collagen type VI alpha 4 pseudogene 1) #5, the values are G2 robust z-score -0.264; G2 cells, % of GMNN control 1.11; inactive.
COL6A4P1 (collagen type VI alpha 4 pseudogene 1) #6 gave G2 robust z-score 2.62; G2 cells, % of GMNN control 21.4; inactive.
